Reference: the supplement of paper PMC8728848
Some of the results follow.

Assays:
Experiment in all cases: glycan array binding signal (z-score within array); higher = stronger binding
Conditions in all cases: glycan notation: IUPAC condensed, linker removed
[1] = target: Fuc(a1-2)[Gal(a1-3)]Gal(b1-4)GlcNAc(b1-3)GalNAc
Method in brief: (§1)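 Negative Z-scores can be read as non-binding. The Z-score is calculated within each array and then averaged across arrays of one protein sequence at different concentrations or buffers and across linkers. Arrays, 3228 in all, were curated from the Consortium for Functional Glycomics database and kept only where the protein sequence was available.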

[2] = target: Fuc(a1-2)[Gal(a1-3)]Gal(b1-4)GlcNAc(b1-3)[Fuc(a1-2)[Gal(a1-3)]Gal(b1-4)GlcNAc(b1-6)]GalNAc
Method in brief: as §1

[3] = target: Fuc(a1-2)[Gal(a1-3)]Gal(b1-4)GlcNAc(b1-6)GalNAc
Method in brief: as §1

[4] = target: Fuc(a1-2)[Gal(a1-3)]Gal(b1-4)[Fuc(a1-3)]Glc
Method in brief: as §1

[5] = target: Fuc(a1-2)[Gal(a1-3)]Gal(b1-4)[Fuc(a1-3)]GlcNAc
Method in brief: as §1

[6] = target: Fuc(a1-2)[Gal(a1-3)]Gal(b1-4)[Fuc(a1-3)]GlcNAc(b1-3)GalNAc
Method in brief: as §1

[7] = target: Fuc(a1-2)[Gal(a1-4)]Gal(b1-4)GlcNAc
Method in brief: as §1

[8] = target: Fuc(a1-2)[GalNAc(a1-3)]Gal
Method in brief: as §1

[9] = target: Fuc(a1-2)[GalNAc(a1-3)]Gal(b1-3)GalNAc(a1-3)[Fuc(a1-2)]Gal(b1-4)GlcNAc
Method in brief: as §1

[10] = target: Fuc(a1-2)[GalNAc(a1-3)]Gal(b1-3)GalNAc(b1-3)Gal(a1-4)Gal(b1-4)Glc
Method in brief: as §1

[11] = target: Fuc(a1-2)[GalNAc(a1-3)]Gal(b1-3)GlcNAc
Method in brief: as §1

[12] = target: Fuc(a1-2)[GalNAc(a1-3)]Gal(b1-3)GlcNAc(b1-2)Man(a1-3)[Fuc(a1-2)[GalNAc(a1-3)]Gal(b1-3)GlcNAc(b1-2)Man(a1-6)]Man(b1-4)GlcNAc(b1-4)GlcNAc
Method in brief: as §1

[13] = target: Fuc(a1-2)[GalNAc(a1-3)]Gal(b1-3)GlcNAc(b1-2)Man(a1-3)[Fuc(a1-2)[GalNAc(a1-3)]Gal(b1-3)GlcNAc(b1-2)Man(a1-6)]Man(b1-4)GlcNAc(b1-4)[Fuc(a1-6)]GlcNAc
Method in brief: as §1

[14] = target: Fuc(a1-2)[GalNAc(a1-3)]Gal(b1-3)GlcNAc(b1-3)GalNAc
Method in brief: as §1

[15] = target: Fuc(a1-2)[GalNAc(a1-3)]Gal(b1-3)GlcNAc(b1-6)GalNAc
Method in brief: as §1

[16] = target: Fuc(a1-2)[GalNAc(a1-3)]Gal(b1-4)Glc
Method in brief: as §1

[17] = target: Fuc(a1-2)[GalNAc(a1-3)]Gal(b1-4)GlcNAc
Method in brief: as §1

[18] = target: Fuc(a1-2)[GalNAc(a1-3)]Gal(b1-4)GlcNAc(b1-2)Man
Method in brief: as §1

[19] = target: Fuc(a1-2)[GalNAc(a1-3)]Gal(b1-4)GlcNAc(b1-2)Man(a1-3)[Fuc(a1-2)[GalNAc(a1-3)]Gal(b1-4)GlcNAc(b1-2)Man(a1-6)]Man(b1-4)GlcNAc(b1-4)GlcNAc
Method in brief: as §1

[20] = target: Fuc(a1-2)[GalNAc(a1-3)]Gal(b1-4)GlcNAc(b1-2)Man(a1-3)[Fuc(a1-2)[GalNAc(a1-3)]Gal(b1-4)GlcNAc(b1-2)Man(a1-6)]Man(b1-4)GlcNAc(b1-4)[Fuc(a1-6)]GlcNAc
Method in brief: as §1

[21] = target: Fuc(a1-2)[GalNAc(a1-3)]Gal(b1-4)GlcNAc(b1-3)Gal(b1-4)GlcNAc
Method in brief: as §1

[22] = target: Fuc(a1-2)[GalNAc(a1-3)]Gal(b1-4)GlcNAc(b1-3)Gal(b1-4)GlcNAc(b1-3)Gal(b1-4)GlcNAc
Method in brief: as §1

[23] = target: Fuc(a1-2)[GalNAc(a1-3)]Gal(b1-4)GlcNAc(b1-3)GalNAc
Method in brief: as §1

[24] = target: Fuc(a1-2)[GalNAc(a1-3)]Gal(b1-4)GlcNAc(b1-3)[Fuc(a1-2)[GalNAc(a1-3)]Gal(b1-4)GlcNAc(b1-6)]GalNAc
Method in brief: as §1

[25] = target: Fuc(a1-2)[GalNAc(a1-3)]Gal(b1-4)GlcNAc(b1-6)GalNAc
Method in brief: as §1

[26] = target: Fuc(a1-2)[GalNAc(a1-3)]Gal(b1-4)[Fuc(a1-3)]GlcNAc
Method in brief: as §1

[27] = target: Fuc(a1-2)[GalNAc(a1-3)]Gal(b1-4)[Fuc(a1-3)]GlcNAc(b1-3)GalNAc
Method in brief: as §1

[28] = target: Fuc(a1-2)[GalNAc(a1-4)]Gal(b1-4)GlcNAc
Method in brief: as §1

[29] = target: Fuc(a1-2)[GalNAc(b1-3)]Gal
Method in brief: as §1

Fuc(a1-3)GlcNAc = target: Fuc(a1-3)GlcNAc
Method in brief: as §1

[30] = target: Fuc(a1-3)[Gal(b1-4)]Glc6S
Method in brief: as §1

[31] = target: Fuc(a1-3)[Gal(b1-4)]GlcNAc
Method in brief: as §1

[32] = target: Fuc(a1-3)[Gal(b1-4)]GlcNAc(b1-2)Man
Method in brief: as §1

[33] = target: Fuc(a1-3)[Gal(b1-4)]GlcNAc(b1-2)Man(a1-3)[Fuc(a1-3)[Gal(b1-4)]GlcNAc(b1-2)Man(a1-6)]Man(b1-4)GlcNAc(b1-4)GlcNAc
Method in brief: as §1

[34] = target: Fuc(a1-3)[Gal(b1-4)]GlcNAc(b1-2)Man(a1-3)[Fuc(a1-3)[Gal(b1-4)]GlcNAc(b1-2)Man(a1-6)]Man(b1-4)GlcNAc(b1-4)[Fuc(a1-6)]GlcNAc
Method in brief: as §1

[35] = target: Fuc(a1-3)[Gal(b1-4)]GlcNAc(b1-3)Gal(b1-3)[Fuc(a1-4)]GlcNAc
Method in brief: as §1

[36] = target: Fuc(a1-3)[Gal(b1-4)]GlcNAc(b1-3)Gal(b1-4)[Fuc(a1-3)]GlcNAc
Method in brief: as §1

[37] = target: Fuc(a1-3)[Gal(b1-4)]GlcNAc(b1-3)Gal(b1-4)[Fuc(a1-3)]GlcNAc(b1-3)Gal(b1-4)[Fuc(a1-3)]GlcNAc
Method in brief: as §1

B1: CRT-1 (Homo sapiens), P27797 (protein)
chain: MLLSVPLLLGLLGLAVAEPAVYFKEQFLDGDGWTSRWIESKHKSDFGKFVLSSGKFYGDEEKDKGLQTSQDARFYALSASFEPFSNKGQTLVVQFTVKHEQNIDCGGGYVKLFPNSLDQTDMHGDSEYNIMFGPDICGPGTKKVHVIFNYKGKNVLINKDIRCKDDEFTHLYTLIVRPDNTYEVKIDNSQVESGSLEDDWDFLPPKKIKDPDASKPEDWDERAKIDDPTDSKPEDWDKPEHIPDPDAKKPEDWDEEMDGEWEPPVIQNPEYKGEWKPRQIDNPDYKGTWIHPEIDNPEYSPDPSIYAYDNFGVLGLDLWQVKSGTIFDNFLITNDEAYAEEFGNETWGVTKAAEKQMKDKQDEEQRLKEEEEDKKRKEEEEAEDKEDDEDKDEDEEDEEDKEEDEEEDVPGQAKDEL
B1 was tested, and the “glycan array binding signal (z-score)” value [1] was -0.01, the “glycan array binding signal (z-score)” value [2] was 1.09 and the “glycan array binding signal (z-score)” value [3] was -0.462. For the same binder, the “glycan array binding signal (z-score)” value [4] was -0.424, the “glycan array binding signal (z-score)” value [5] was 0.498 and the “glycan array binding signal (z-score)” value [6] was -0.289. For the same binder, the “glycan array binding signal (z-score)” value [7] was 0.359, the “glycan array binding signal (z-score)” value [8] was -0.149 and the “glycan array binding signal (z-score)” value [9] was -0.377. For the same binder, the “glycan array binding signal (z-score)” value [10] was -0.548, the “glycan array binding signal (z-score)” value [11] was -0.397 and the “glycan array binding signal (z-score)” value [12] was -0.107. For the same binder, the “glycan array binding signal (z-score)” value [13] was -0.531, the “glycan array binding signal (z-score)” value [14] was 0.68 and the “glycan array binding signal (z-score)” value [15] was -0.976. For the same binder, the “glycan array binding signal (z-score)” value [16] was -0.329, the “glycan array binding signal (z-score)” value [17] was -0.467 and the “glycan array binding signal (z-score)” value [18] was -0.607. The “glycan array binding signal (z-score)” value [19] was 0.117, the “glycan array binding signal (z-score)” value [20] was 0.045 and the “glycan array binding signal (z-score)” value [21] was -0.116. The “glycan array binding signal (z-score)” value [22] was 0.218, the “glycan array binding signal (z-score)” value [23] was -0.974 and the “glycan array binding signal (z-score)” value [24] was -0.475. The “glycan array binding signal (z-score)” value [25] was -0.672, the “glycan array binding signal (z-score)” value [26] was -0.26 and the “glycan array binding signal (z-score)” value [27] was -0.047. The “glycan array binding signal (z-score)” value [28] was 0.261, the “glycan array binding signal (z-score)” value [29] was -0.274 and the “glycan array binding signal (z-score)” value (Fuc(a1-3)GlcNAc) was 2.63. The “glycan array binding signal (z-score)” value [30] was 0.367, the “glycan array binding signal (z-score)” value [31] was -0.29 and the “glycan array binding signal (z-score)” value [32] was 0.323. For the same binder, the “glycan array binding signal (z-score)” value [33] was 0.284, the “glycan array binding signal (z-score)” value [34] was 0.357 and the “glycan array binding signal (z-score)” value [35] was -0.184. The “glycan array binding signal (z-score)” value [36] was -0.525 and the “glycan array binding signal (z-score)” value [37] was 0.483.
